# Values of other authors in patent US12096770B2, “Method for preparing an insect repellent agent” (CENTRE NATIONAL DE LA RECHERCHE SCIENTIFIQUE, priority 2019, dated 2024).
# At least one structure is not confirmed: it was looked up by name or label, or the drawing left a doubt.
# Details: cited from earlier work
smiles,measurement,value
"CC1CCC(C(C)(C)O)C(O)C1 (stereo not shown) [PMD, (2-hydroxypropan-2-yl)-5-methylcyclohexan-1-ol]",toxicity and adverse effects,"low toxicity and no adverse effects, except for eye irritation"
